For assay [1], the target named is T1, MDA5 (endogenous, A549) (human (endogenous in A549)) (UniProt Q9BYX4).
T1 sequence: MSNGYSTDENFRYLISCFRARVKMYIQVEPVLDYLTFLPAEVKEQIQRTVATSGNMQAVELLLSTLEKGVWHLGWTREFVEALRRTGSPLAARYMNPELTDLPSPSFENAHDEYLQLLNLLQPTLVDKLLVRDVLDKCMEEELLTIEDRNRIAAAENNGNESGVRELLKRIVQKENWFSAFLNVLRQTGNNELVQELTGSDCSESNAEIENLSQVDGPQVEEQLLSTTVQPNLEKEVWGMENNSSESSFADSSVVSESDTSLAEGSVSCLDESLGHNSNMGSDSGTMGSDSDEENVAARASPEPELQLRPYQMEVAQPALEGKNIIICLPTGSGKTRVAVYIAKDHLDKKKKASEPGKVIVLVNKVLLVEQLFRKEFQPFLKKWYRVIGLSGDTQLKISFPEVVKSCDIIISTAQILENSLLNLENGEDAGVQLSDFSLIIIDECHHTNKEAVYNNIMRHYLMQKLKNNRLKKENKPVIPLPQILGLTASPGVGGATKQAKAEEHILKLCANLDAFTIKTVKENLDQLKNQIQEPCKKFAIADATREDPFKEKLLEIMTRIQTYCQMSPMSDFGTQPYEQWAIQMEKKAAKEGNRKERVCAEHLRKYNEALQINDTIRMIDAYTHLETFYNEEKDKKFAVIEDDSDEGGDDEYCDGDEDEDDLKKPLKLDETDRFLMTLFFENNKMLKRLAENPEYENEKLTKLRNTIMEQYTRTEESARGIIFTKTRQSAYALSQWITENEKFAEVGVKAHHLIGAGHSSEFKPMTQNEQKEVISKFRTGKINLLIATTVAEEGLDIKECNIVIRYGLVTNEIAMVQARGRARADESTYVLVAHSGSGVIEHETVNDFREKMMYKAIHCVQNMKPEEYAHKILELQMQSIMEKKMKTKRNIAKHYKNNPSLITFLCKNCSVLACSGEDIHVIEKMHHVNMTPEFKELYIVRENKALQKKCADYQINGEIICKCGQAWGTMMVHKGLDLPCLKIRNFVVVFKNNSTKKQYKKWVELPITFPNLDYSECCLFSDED
Nature of the assay: co-IP; endogenous proteins in A549 lysates, uninfected or infected with EMCV for indicated times; IP with anti-MDA5 antibody (Fig. 2G; antibody not named for Fig. 5D), immunoblot.

The next assay concerns the target T2, Flag-tagged MDA5 (UniProt Q9BYX4).
T2 sequence: T1 sequence
Description: co-IP; HEK293T cells co-transfected with tagged plasmids, 18 h; lysed in IP buffer (20 mM Tris pH 7.5, 150 mM NaCl, 1% Triton X-100); IP with anti-Flag antibody (Fig. 2F also anti-myc), protein G magnetic beads, immunoblot.

These are yes or no findings as the source states them, for the method shown. In cells and extracts the contact can be indirect. Some entries that bind do so weakly or less than the wild type. For some of these results: Where a sequence is shown, tags or fusion partners need not be part of it.

B1: CCDC50 (endogenous, A549) (protein, UniProt Q8IVM0 1-306)
chain: MAEVSIDQSKLPGVKEVCRDFAVLEDHTLAHSLQEQEIEHHLASNVQRNRLVQHDLQVAKQLQEEDLKAQAQLQKRYKDLEQQDCEIAQEIQEKLAIEAERRRIQEKKDEDIARLLQEKELQEEKKRKKHFPEFPATRAYADSYYYEDGGMKPRVMKEAVSTPSRMAHRDQEWYDAEIARKLQEEELLATQVDMRAAQVAQDEEIARLLMAEEKKAYKKAKEREKSSLDKRKQDPEWKPKTAKAANSKSKESDEPHHSKNERPARPPPPIMTDGEDADYTHFTNQQSSTRHFSKSESSHKGFHYKH
For the molecule B1, the binding entry in assay [1] is recorded as “binds”.

B2: CCDC50 (protein, UniProt Q8IVM0 1-306)
chain: B1 chain
For the molecule B2, the binding entry with Flag-tagged MDA5 is listed as “binds”.

B3: Myc-tagged RNF144B (protein, UniProt Q7Z419 1-303)
chain: MGSAGRLHYLAMTAENPTPGDLAPAPLITCKLCLCEQSLDKMTTLQECQCIFCTACLKQYMQLAIREGCGSPITCPDMVCLNHGTLQEAEIACLVPVDQFQLYQRLKFEREVHLDPYRTWCPVADCQTVCPVASSDPGQPVLVECPSCHLKFCSCCKDAWHAEVSCRDSQPIVLPTEHRALFGTDAEAPIKQCPVCRVYIERNEGCAQMMCKNCKHTFCWYCLQNLDNDIFLRHYDKGPCRNKLGHSRASVMWNRTQVVGILVGLGIIALVTSPLLLLASPCIICCVCKSCRGKKKKHDPSTT
In the case of B3, in the assay with Flag-tagged MDA5, the binding result is on record as “binds”.

B4: RNF144B (endogenous, A549) (protein, UniProt Q7Z419 1-303)
chain: B3 chain
With B4, in assay [1], the binding entry is listed as “binds”.
